PubChem BioAssay AID1259425, University of Nebraska Medical Center | 2018
Purpose: 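Find knockdowns that reproduce the gene expression pattern seen when KSR1 is lost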 (primary screen). Cell system: HCT116 human colon cancer cells. Knock-down reagent: siRNA pool against human genes, 50 nM siRNA. Measured: 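After 50 nM siRNA pool, branched-DNA assay measures six marker transcripts per well, minus blank, normalised to the geometric mean of two housekeeping transcripts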. Scale: BNIP3L mRNA: higher = more BNIP3L transcript after knockdown; NDRG1 mRNA: higher = more NDRG1 transcript after knockdown; BNIP3 mRNA: higher = more BNIP3 transcript after knockdown; ALDOC mRNA: higher = more ALDOC transcript after knockdown.
This is a random part of about 14,000 reagents. Further read-outs or replicates are left out here. No sequences are given here. Not given: the time to read-out.

gene	PubChem SID	BNIP3L mRNA, set 1	NDRG1 mRNA, set 1	BNIP3 mRNA, set 1	ALDOC mRNA, set 1
CEP131	SID364005175	0.131	0.402	0.335	0.0179
B4GALT1	SID363992755	0.0533	0.16	0.34	0.0274
LGALS9	SID363993505	0.133	0.32	0.217	0.0514
CHRNE	SID363991417	0.124	0.199	0.145	0.0623
PTPRJ	SID363993999	0.215	0.0464	0.518	0.00759
GPR157	SID364003195	0.134	0.308	0.318	0.0283
HAND1	SID363995774	0.12	0.207	0.399	0.00776
ADH5P4	SID364005324	0.0781	0.568	0.3	0.0366
PNPLA4	SID364005200	0.0694	0.166	0.277	0.0246
TAF12	SID363996537	0.151	0.146	0.246	0.0178
NOB1	SID363998586	0.264	0.183	0.571	0.0923
PGC	SID363993798	0.238	0.94	0.413	0.0489

6 of these entries in another layout:
LGALS9 [SID363993505]
- BNIP3L mRNA, set 1: 0.133
- NDRG1 mRNA, set 1: 0.32
- BNIP3 mRNA, set 1: 0.217
- ALDOC mRNA, set 1: 0.0514

CHRNE [SID363991417]
- BNIP3L mRNA, set 1: 0.124
- NDRG1 mRNA, set 1: 0.199
- BNIP3 mRNA, set 1: 0.145
- ALDOC mRNA, set 1: 0.0623

PTPRJ [SID363993999]
- BNIP3L mRNA, set 1: 0.215
- NDRG1 mRNA, set 1: 0.0464
- BNIP3 mRNA, set 1: 0.518
- ALDOC mRNA, set 1: 0.00759

GPR157 [SID364003195]
- BNIP3L mRNA, set 1: 0.134
- NDRG1 mRNA, set 1: 0.308
- BNIP3 mRNA, set 1: 0.318
- ALDOC mRNA, set 1: 0.0283

HAND1 [SID363995774]
- BNIP3L mRNA, set 1: 0.12
- NDRG1 mRNA, set 1: 0.207
- BNIP3 mRNA, set 1: 0.399
- ALDOC mRNA, set 1: 0.00776

ADH5P4 [SID364005324]
- BNIP3L mRNA, set 1: 0.0781
- NDRG1 mRNA, set 1: 0.568
- BNIP3 mRNA, set 1: 0.3
- ALDOC mRNA, set 1: 0.0366

Additional reagents follow.
gene	PubChem SID	BNIP3L mRNA, set 1	NDRG1 mRNA, set 1	BNIP3 mRNA, set 1	ALDOC mRNA, set 1
CD44	SID363991928	0.045	0.107	0.276	0.027
ENTPD1	SID363992995	0.126	0.0784	0.238	0.0748
NHERF4	SID364003062	0.11	0.193	0.285	0.0341
LEPROT	SID364000338	0.148	0.127	0.257	0.0961
NOP14	SID364005087	0.137	0.627	0.223	0.0326
PIK3C2B	SID363993814	0.169	0.117	0.316	0.011
PRDM8	SID364001571	0.146	0.21	0.316	0.0134
HROB	SID364002693	0.0612	0.242	0.227	0.00744
MYOZ1	SID364002123	0.181	0.584	0.308	0.0523
LBHD1	SID364002748	0.0717	0.103	0.231	0.0149
PLPPR4	SID363999137	0.193	0.133	0.494	0.0593
NLGN3	SID364001301	0.14	0.125	0.365	0.0135
SETD6	SID364003116	0.0672	0.323	0.435	0.0803
SCG2	SID363994568	0.11	0.184	0.407	0.0133
CYP3A43	SID364002564	0.15	0.28	0.355	0.0375
SNUPN	SID363996588	0.0628	0.107	0.192	0.0212
RBBP8	SID363994049	0.189	1.03	0.262	0.029
ZNF639	SID364000038	0.168	0.084	0.276	0.0426
PTPN13	SID363997086	0.0913	0.146	0.344	0.0407
GRAP2	SID363995764	0.0648	0.0494	0.25	0.0214
SPTAN1	SID363994268	0.178	0.354	0.371	0.0423
ARHGAP26	SID363999285	0.0945	0.128	0.188	0.0408
